{"source": "patent US11020352B2", "about": "“Systems and methods for the fabrication of tablets, including pharmaceutical tablets” (Massachusetts Institute of Technology, priority 2017, dated 2021)", "assay": "Bulk and flow properties of powders (FT4 Powder Rheometer)", "type": "physicochemical", "settings": "API/excipient powder", "data": [{"smiles": "CN1C(=O)CN=C(c2ccccc2)c2cc(Cl)ccc21", "note": "[Diazepam (DIZ), Diazepam]", "values": [{"measurement": "Bulk density", "result": 0.52, "unit": "g/mL"}]}]}
